Measurements published in US6534282B2, “Detection of hypertension using immunoreactive metabolic products” (priority 1999, dated 2003).
At least one compound was matched to its structure with a doubt left.

Legend:
AA epoxygenase [1] = experiment: AA oxygenase activity assay of hepatic microsomes using 14C AA, from treated rats; assay type: in vivo, rat; conditions: after treatment of rats
Protocol: Male and female Sprague-Dawley (SD) rats (160-200 g) were purchased from Charles River Laboratories (Wilmington, Mass.) and housed in a controlled environment and fed standard laboratory chow for at least 3 days before use.
Microsomes were prepared from rat livers and kidneys as described previously (27,28). Microsomes were stored at −80° C. in 50 mM Tris acetate buffer, pH 7.4, containing 1 mM EDTA and 20% glycerol until use.
After incubation of the microsomes (1 mg protein/ml, final concentration), 0.05 M Tris-HCl buffer, pH 7.5, containing 0.15 m KCl, 10 mM MgC12, 8 mM sodium isocitrate and 0.5 IU of isocitrate dehydrogenase and, incubated with ^14C AA (1 μCi/μmol, 100 μM, final concentration) in the presence of 1 mM NADPH at 30° C. The reaction products were taken at five and ten minutes and extracted into ethyl ether containing 0.05% acetic acid. The AA oxygenase metabolites were separated by HPLC and quantitated by a radiomatic Flo-One β-detector.
The reaction products were taken at 5 and 10 min. and extracted into ethyl ether containing 0.05% acetic acid). The AA oxygenase metabolites were separated by HPLC and quantitated by a radiomatic Flo-One B-detector.

AA epoxygenase [2] = experiment: AA epoxygenase enzyme assay of hepatic microsomes using ELISA, with and without NADPH; assay type: in vivo, rat; conditions: hepatic microsomes of treated rats, FIG. 3

**Q.** `C[C@@H]1C[C@H]2[C@@H]3CCC4=CC(=O)C=C[C@]4(C)[C@@]3(F)[C@@H](O)C[C@]2(C)[C@@]1(O)C(=O)CO` [DEX, dexamethasone] was tested. Which “hepatic AA epoxygenase activity” value (AA epoxygenase [1]) did it give?
**A.** substantially decreased

**Q.** What about the “AA epoxygenase activity by ELISA (total minus NADPH-independent EETs)” value (AA epoxygenase [2]) of the same compound?
**A.** dramatic decrease

**Q.** What about the “AA epoxygenase-independent (NADPH-independent) EET formation activity” value (AA epoxygenase [2]; listed as Dexamethasone) of the same compound?
**A.** increased

**Q.** And the “AA epoxygenase-independent (NADPH-independent) EET formation activity” value (AA epoxygenase [2]; listed as dexamethasone)?
**A.** higher
